{"source": "PubChem BioAssay AID1347423", "about": "(Functional Genomics Laboratory (NCATS/FGL), 2020)", "note": "Hit rate of the full screen: of about 52,000 sequences, about 210 (0.4%) were called active.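 Rule for the calls: active = gene whose silencing raises cell survival under the drug, median off-target-corrected z-score across its silencing RNAs 2 or more; inactive = the rest.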 Some of the results follow."}
{"test": "Resistance to Poly (ADP-Ribose) Polymerase inhibitor: Gene Identification via Genome-wide siRNA Screen", "conditions": "mouse BRCA2 R2336H ES cells, olaparib, CellTiter-Glo viability; active compounds read high", "in_short": "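Mouse BRCA2 R2336H ES cells were reverse-transfected with siRNA (20 nM final), treated at 48 h with 500 nM olaparib, and read by CellTiter-Glo after 72 h. Scores: MAD-based z per siRNA, median per gene, seed off-target correction.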"}
{"sequence": "GCAAAACGAUGACUCGGAGTT against Lhx4", "z-score": "inactive: 0.126"}
{"sequence": "GGCUAUUCCGCAUUCUACGTT against 1110057K04Rik", "z-score": "inactive: 0.47"}
{"sequence": "GGUCCUUAGGUGACCUCCUTT against Lrrc20", "z-score": "inactive: 0.274"}
{"sequence": "GGAUAUCGUUGUUUCUGAGTT against Lmbr1", "z-score": "inactive: -0.52"}
{"sequence": "GGGCAUAAAAUCAUUGCCUTT against Tigd4", "z-score": "inactive: -1.16"}
{"sequence": "GGCUGGGUAAAACCCAUCATT against Idh1", "z-score": "inactive: 1.28"}
{"sequence": "GCUGAUUCGGCUUAUGAUCTT against A330080J22Rik", "z-score": "inactive: -0.286"}
{"sequence": "GGUAGACAACUGGAUAAAUTT against Gpnmb", "z-score": "inactive: -0.115"}
{"sequence": "GCGAGUCAUACCAAUUAGATT against Htf9c", "z-score": "inactive: -0.219"}
{"sequence": "GGCUCUAACAGCUACAUGUTT against Hspb7", "z-score": "inactive: 0.614"}
{"sequence": "GGGCAAGAAAUCAAGGUUUTT against Krtap3-2", "z-score": "inactive: -0.675"}
{"sequence": "GAUCUGGUAUGUUUGUGACTT against Olfr1414", "z-score": "inactive: 0.519"}
{"sequence": "GGACCAAAAGGAAAAUCCATT against Kcnj6", "z-score": "inactive: 0.118"}
{"sequence": "GGACAAUUGCCUUUUGACATT against Thbs3", "z-score": "inactive: -0.207"}
{"sequence": "GGAGUUUGGGACCCUACUUTT against Mllt7", "z-score": "inactive: -0.581"}
{"sequence": "GAAUCAUGAUAGAAUGCAUTT against AI987944", "z-score": "inactive: 1.32"}
{"sequence": "GGCAAAGCCAAAAGAAAUATT against B230380D07Rik", "z-score": "inactive: 0.00605"}
{"sequence": "CGGCGAGUUCACAUUUCUGTT against Il1rl1l", "z-score": "inactive: -0.544"}
{"sequence": "GGGAAAACAGCCCUUUCAUTT against Slc12a7", "z-score": "inactive: -0.171"}
{"sequence": "GCGAGGUGUCUCUAUCAACTT against Mrpl11", "z-score": "inactive: 1.4"}
{"sequence": "GUUUGAUGUCUGUCUAACATT against Olfr608", "z-score": "inactive: -0.215"}
{"sequence": "GUCAGAUGAUUCUAUUCUCTT against Rps21", "z-score": "inactive: -2.72"}
{"sequence": "GCCGCUACACAUCAAACCATT against Zc3hdc3", "z-score": "inactive: -1.49"}
{"sequence": "GGCUCUAUGAGUCUACCUATT against Cdx1", "z-score": "inactive: 0.68"}
{"sequence": "GCACUCCUUCGAUUUAAUCTT against AI505034", "z-score": "inactive: -0.939"}
{"sequence": "GGAAGUUUGUUUGCUGUUATT against 2210009G21Rik", "z-score": "inactive: 2.5"}
{"sequence": "GAGGGUGUGCAUUCUUCUATT against Olfr1242", "z-score": "inactive: -0.348"}
{"sequence": "GGGAUUCAUAAGGAGAAAATT against Tm4sf2", "z-score": "inactive: -0.67"}
{"sequence": "GGACAAAGAUAAAGAAGAUTT against Lsp1", "z-score": "inactive: -1.25"}
{"sequence": "CCAGAAGUUAGAACAGUUCTT against Rp9h", "z-score": "inactive: -1.13"}
{"sequence": "GGUGAUUGAGUUGGAGAGGTT against Nkx3-1", "z-score": "inactive: -0.427"}
{"sequence": "GCAUGAUCCAGCUUUCUAGTT against Bard1", "z-score": "inactive: -2.24"}
{"sequence": "GCAGCGAUGUACAAUCCAATT against Opn5", "z-score": "inactive: 1.04"}
{"sequence": "GGAUGAAGAUACGAUUGAUTT against Sumo2", "z-score": "inactive: -1.5"}
{"sequence": "GGUUCAGUCAGUCAGUAUCTT against Srst", "z-score": "inactive: -0.639"}
{"sequence": "GGCUGUGGAUCUCCUAUCATT against Ibrdc2", "z-score": "inactive: -0.338"}
{"sequence": "GCAAGUGCCUAGAGUCUCATT against Crat", "z-score": "inactive: -0.969"}
{"sequence": "GGAAGUCUCUUAGACUACCTT against Fbxo36", "z-score": "inactive: -0.143"}
{"sequence": "CCUGCUCUAGAGAAGAAGUTT against Apoa1bp", "z-score": "inactive: -1.27"}
{"sequence": "GCUGAAAACUGCUUGCUCCTT against Onecut3", "z-score": "inactive: 0.229"}
{"sequence": "GGCGACAUGUACAAUGACUTT against 0610012D09Rik", "z-score": "inactive: 0.674"}
{"sequence": "GGAUAUCUAAUGUUAGAAGTT against E130304F04Rik", "z-score": "inactive: -0.4"}
{"sequence": "GGAUUCUUACCCAACUUUUTT against C330046L10Rik", "z-score": "inactive: 0.653"}
{"sequence": "GGAAAAAUAGCAUACCGAATT against Bphl", "z-score": "inactive: 0.313"}
{"sequence": "GGCGAUCUUUGGAAUUAGATT against Ing3", "z-score": "inactive: 1.17"}
{"sequence": "CGGGACAUUAGUCAUUAAATT against Pcdha5", "z-score": "inactive: 1.55"}
{"sequence": "GCCGAAGAGAUCAACACCATT against Onecut3", "z-score": "inactive: -0.28"}
{"sequence": "GGGUUAAAGCGGUUUACUUTT against Kcng3", "z-score": "inactive: 0.348"}
{"sequence": "GGUCUACAUUGAUCCUUUUTT against Ephb4", "z-score": "inactive: 0.0136"}
{"sequence": "GGAAUCUGAAUUUUUGUGUTT against Commd1", "z-score": "inactive: 0.407"}
{"sequence": "GCCGUUUUACAAAAGCUUUTT against Ches1", "z-score": "inactive: -0.0824"}
{"sequence": "GCUUAGAAAUGUGAUCCAUTT against Rex2", "z-score": "inactive: 0.656"}
{"sequence": "GGCUUCUUCUUCCUUUUUATT against Sra1", "z-score": "inactive: 1.5"}
{"sequence": "GGGAAUGUCUGACUUCCAGTT against Gtf3c5", "z-score": "inactive: -2.58"}
{"sequence": "CCCAUUUAGACUAGUUUAATT against Hsf2", "z-score": "inactive: -0.171"}
{"sequence": "GGAUGUUCAGCAAUCCCUGTT against Rnf121", "z-score": "inactive: 0.6"}
{"sequence": "GCUUGACUUGGUAUGUUUATT against 9030624L02Rik", "z-score": "inactive: 1.31"}
{"sequence": "GGGCUUCAUAAUCACCUUCTT against Rad51c", "z-score": "inactive: -1.74"}
{"sequence": "GCGAUCCUCUCUACUUAACTT against 6430537H07Rik", "z-score": "inactive: 0.432"}
{"sequence": "GGGAAACAGACUUUUUUUATT against Arid3a", "z-score": "inactive: 0.697"}
{"sequence": "GGAACUGGAAUCAAGACCATT against 1200011M11Rik", "z-score": "inactive: 1.16"}
{"sequence": "GCGGGACUCAAACAAAAGUTT against Trip4", "z-score": "inactive: -0.208"}
{"sequence": "GCCAAGAGGACUUACUCUCTT against A530081L18Rik", "z-score": "inactive: -0.639"}
{"sequence": "GGAGGCUUAUCCUAAAAAGTT against 6330444E15Rik", "z-score": "inactive: 0.256"}
{"sequence": "GGCAUGGAAGGCUUUAAUUTT against Gad1", "z-score": "inactive: 0.393"}
{"sequence": "GGAAGAAUGAAGAAGUAAUTT against Cacng3", "z-score": "inactive: 0.0762"}
{"sequence": "GGGCCUAGACCGUAUCUUCTT against Kcnj12", "z-score": "inactive: 0.13"}
